Results are given in words; binding and its absence hold for the method and conditions named. Some binding calls cover weakened binding; strength is not graded here.
Molecular target: long isoform of GABPB1 (GABPB1L) (human) (UniProt Q06547)
Experiment: co-purification

Amino acid sequences for entries named in this document (tags omitted).
UniProt Q06547, whole entry: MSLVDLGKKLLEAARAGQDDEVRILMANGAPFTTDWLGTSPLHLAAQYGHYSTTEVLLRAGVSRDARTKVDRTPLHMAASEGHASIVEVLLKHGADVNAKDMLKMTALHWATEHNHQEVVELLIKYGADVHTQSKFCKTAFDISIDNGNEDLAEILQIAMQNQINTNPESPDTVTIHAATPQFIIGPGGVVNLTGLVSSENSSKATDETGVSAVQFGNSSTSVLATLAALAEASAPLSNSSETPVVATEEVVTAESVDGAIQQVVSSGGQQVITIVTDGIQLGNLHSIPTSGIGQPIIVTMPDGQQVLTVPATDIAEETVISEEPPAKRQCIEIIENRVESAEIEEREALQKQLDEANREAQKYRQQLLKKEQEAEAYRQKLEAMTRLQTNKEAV

B1: GA binding protein A (GABPA) (protein, UniProt Q06546 1-454)
chain: MTKREAEELIEIEIDGTEKAECTEESIVEQTYAPAECVSQAIDINEPIGNLKKLLEPRLQCSLDAHEICLQDIQLDPERSLFDQGVKTDGTVQLSVQVISYQGIEPKLNILEIVKPADTVEVVIDPDAHHAESEAHLVEEAQVITLDGTKHITTISDETSEQVTRWAAALEGYRKEQERLGIPYDPIQWSTDQVLHWVVWVMKEFSMTDIDLTTLNISGRELCSLNQEDFFQRVPRGEILWSHLELLRKYVLASQEQQMNEIVTIDQPVQIIPASVQSATPTTIKVINSSAKAAKVQRAPRISGEDRSSPGNRTGNNGQIQLWQFLLELLTDKDARDCISWVGDEGEFKLNQPELVAQKWGQRKNKPTMNYEKLSRALRYYYDGDMICKVQGKRFVYKFVCDLKTLIGYSAAELNRLVTECEQKKLAKMQLHGIAQPVTAVALATASLQTEKDN
  binding: binds
